Results taken from patent US20240191267A1, “Tropane Alkaloid Transporters and Methods of Making Tropane Alkaloids Using the Same” (priority 2021, published 2024).

Test system: AbLP1
Test: Yeast toxicity assay and growth curves, AD1-8 expressing AbLP1
Excerpt: (§1) Solid lines and shaded/hatched bars respectively indicate mean and standard deviation of n=3 biologically independent samples.
Heatmap values were extracted from mean growth curves in FIG. 80.
as §1, §1
Yeast toxicity assays and growth curves. Candidate transporters for use in non-plant cells for the purpose of enhancing or modulating metabolite localization may be characterized in any suitable strain of the non-plant organism of interest. […] An example protocol for the characterization of TA transporters in yeast is provided as follows. […] Strain AD1-8 is transformed as described earlier with a low-copy plasmid harboring a constitutively expressed transporter candidate or blue fluorescent protein as negative control and a suitable auxotrophic marker, such as URA3, LEU2, TRP1, or […]. Transformants are inoculated into 1 mL of selective YNB-G media and grown overnight (˜14-18 h) at 30° C. and 460 rpm. Overnight cultures are then diluted in triplicate to a starting concentration of OD600=0.02 into selective YNB-G media containing 0-20 mM alkaloids (or appropriate substrates to be tested), 0 or 0.1 M potassium phosphate buffer (K2HPO4/KH2PO4, pH 5.4-6.4) or any suitable pH buffer, and 0-100 mM NaCl or KCl or any other salts of interest in a 96-well plate (200 μl culture volume per well). Culture densities (OD600) are then measured every 30 min for 48 h in a suitable plate reader, such as a SpectraMax i3 plate reader (Molecular Devices), with chamber temperature 30° C. and orbital shaking every 30 min.
D. Smolke, Biosynthesis of medicinal tropane alkaloids in yeast.

Row | Structure (SMILES) | H+ dependence of hyoscyamine transport (AbLP1, 10 mM hyoscyamine, pH-buffered media (100 mM potassium phosphate)) | effect of monovalent cations on transport (AbLP1, 20 mM hyoscyamine, 0-100 mM NaCl or KCl) | sensitivity to alkaloid conferred by transporter expression (AD1-8 expressing AbLP1, tropine only at 1 mM)
1 | CN1[C@@H]2CC[C@H]1C[C@@H](OC(=O)[C@H](CO)c1ccccc1)C2 [hyoscyamine] | did not appear to be pH-dependent | slightly enhanced at high [Na^+] but not at high [K^+] | 
2 | CN1[C@@H]2C[C@@H](OC(=O)[C@H](CO)c3ccccc3)C[C@H]1[C@@H]1O[C@@H]12 [scopolamine] |  |  | not
